# Source: the supplement of paper PMC3334620
# Over roughly 33,000 sequences, “E-score (-0.5 to 0.5)” has its median near -0.0059; the highest 2% begin near 0.26. The list shows a part of the results.
# Target: T1, Cin5 (UniProt P40917)
# T1 sequence: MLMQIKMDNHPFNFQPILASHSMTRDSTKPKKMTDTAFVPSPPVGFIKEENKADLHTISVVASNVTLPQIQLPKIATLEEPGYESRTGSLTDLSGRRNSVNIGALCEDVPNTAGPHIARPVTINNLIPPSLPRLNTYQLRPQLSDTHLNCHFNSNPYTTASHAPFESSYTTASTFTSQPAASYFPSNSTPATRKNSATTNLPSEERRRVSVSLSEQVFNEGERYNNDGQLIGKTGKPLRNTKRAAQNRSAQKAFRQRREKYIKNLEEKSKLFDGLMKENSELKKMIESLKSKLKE
# Assay: PBM E-score (8-mer binding enrichment) (E-score (-0.5 to 0.5)); higher = stronger / more preferred TF binding
# Settings: protein concentration: 100 nM; construct: GST-full length
# Procedure, shortened: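 Universal all-10-mer Agilent arrays, fresh or stripped once, were converted to double-stranded form by primer extension. GST-tagged yeast transcription factors from PURExpress in vitro transcription/translation, full-length or DNA-binding domain only, were applied at about 100-200 nM and detected with fluorescent anti-GST. After masliner normalisation, the Universal PBM Analysis Suite scored each ungapped eight-base word together with its reverse complement by E-score.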
row,Sequence,PBM E-score
1,GTACGGAC,0.0359
2,GAATTACC,0.00886
3,GGCTGCCC,-0.243
4,ATTTCTCG,0.313
5,ATCGTGGC,-0.0613
6,TGCAAAAA,0.0983
7,GGGGATTA,0.253
8,CCGGTTGA,-0.0617
9,AATAGCAT,0.174
10,AGCTCTGA,-0.219
11,AGACGACC,-0.0757
12,AAAGAAAG,0.0167
13,AATTCTCA,0.0439
14,AGCGACCT,-0.194
15,GCTAGTCC,-0.226
16,CGATGCGA,0.0284
17,GAAACAAA,0.21
18,CTAGCTAG,0.041
19,AGGTGGAG,-0.239
20,AACCAGGT,-0.181
21,ACTTTCGC,-0.0059
22,AGGGCCGC,-0.324
23,AACCGCGC,0.241
24,GAAGTTCA,0.0618
25,CGAGATAC,0.15

row,Sequence,PBM E-score
1,GTGGTCAA,0.0229
2,GAAATACA,0.108
3,AAGAAGAG,0.0193
4,AGTCCACC,0.0743
5,AGTGGGCA,0.0507
6,CTCTGGGA,-0.31
7,CGTGTCTA,0.0403
8,GCGTGGAC,-0.251
9,ACCATGGA,-0.247
10,TGTACTAA,0.0762
11,GCGACGCA,-0.137
12,ACGCGAAC,0.0266
13,CGGGCTAC,-0.192
14,AGCTTTTA,0.0832
15,CTAACTGA,0.0445
16,GATCAATA,0.131
17,CGTCCACG,-0.229
18,ATAATTCG,0.171
19,CAAGTAGC,-0.0646
20,CTCAGCTA,-0.124
21,AGAAACTA,-0.065
22,TATGAGAA,0.214
23,AGGAACAT,-0.0926
24,CGGTGCAA,-0.107
25,TGCCGCAA,0.00929

row,Sequence,PBM E-score
1,ACCAAGTC,0.0933
2,CTCACCAG,0.0111
3,CCCCGACA,-0.0722
4,AATTCCGT,0.228
5,ACGTACCT,-0.23
6,CCTCACGC,0.0561
7,CAATTCAC,0.158
8,TGAGCACA,0.0892
9,ACGCATGA,0.0604
10,CGGGCCGC,-0.0901
11,AGCAGGCG,-0.0847
12,GACGTTGA,0.168
13,GCACAGGC,-0.0964
14,CAGACGGC,-0.114
15,TACAAAAA,0.232
16,AACATTAG,-0.0325
17,CGTCACAC,-0.0397
18,CAGCAGGG,-0.147
19,CCCTCCAC,-0.0933
20,GATATCCA,0.183
21,ATCAAAAA,0.239
22,CGTGACTC,-0.283
23,ATAAGACG,0.0211
24,TATCCTGA,0.1
25,ACCGCGCG,0.241

row,Sequence,PBM E-score
1,ACATCTCA,0.128
2,ATTACCAG,0.18
3,ACGGGTCC,-0.245
4,TTCTAGAA,-0.0837
5,ACAACTGG,-0.0556
6,GGCAATTA,0.0819
7,GAGTGACC,-0.0639
8,AAGGGCAG,-0.162
9,ACAGTAAA,0.098
10,GGATTGGA,0.0959
11,CGACTTAC,-0.0271
12,GCGTAACC,0.0286
13,ATGGTTAC,0.0735
14,CGCCACCA,-0.28
15,CATATAGC,0.164
16,TATAACGA,0.172
17,ATCGGCTA,0.0195
18,CCCACCTA,-0.0442
19,ACGAGTGC,-0.119
20,ACTAAACC,-0.0367
21,CCGTTGAA,-0.199
22,CAGAATCC,-0.0177
23,TCTGGTAA,0.126
24,GTACCGAC,-0.159
25,AGAACTCT,-0.0917

row,Sequence,PBM E-score
1,CGATAGTC,-0.0397
2,CGTGGCAA,-0.207
3,TCATTTAA,0.167
4,CCACACCA,0.165
5,AGGCACCG,-0.204
6,GAGAGGCA,-0.157
7,AAGTAAAC,0.113
8,GTCGCCAC,-0.242
9,ATGGATAC,0.0771
10,AAACAAAG,0.135
11,AATCGCAA,0.119
12,CACATCTG,-0.0646
13,CCTTCGTA,-0.0406
14,CTTTCGGC,-0.195
15,TAAGCTAA,0.222
16,AGTACGGG,-0.115
17,ATACCGGC,0.0471
18,CTGTTTAA,0.0642
19,TTGATAAA,0.187
20,ATAACGGG,0.0198
21,GACAAGTC,-0.226
22,ATGAATCA,0.16
23,CCGTATCA,0.036
24,GCTAATAC,0.153
25,CTCTTCCA,-0.124

row,Sequence,PBM E-score
1,ACATTATA,0.244
2,ATTACAAG,0.131
3,CACGGGGA,-0.064
4,GTGGCCTA,-0.0108
5,CCCTTTCA,-0.259
6,CTAATCAA,0.301
7,CGTCTAAC,-0.136
8,AGGACGCC,-0.22
9,ATTAAGGC,0.0047
10,CACTTTAC,0.112
11,CAGCGAAA,-0.0554
12,GGTTACGA,0.0792
13,ATGGGGTG,0.0486
14,AGGTCGAA,0.0466
15,GGGTGGCA,-0.133
16,GGTCCCAC,-0.148
17,AGACGCGC,-0.0231
18,CCAGGCGG,-0.0751
19,CGACCCGA,-0.189
20,AAGAATGT,0.119
21,AGGCGGTA,-0.182
22,CGAGCTCA,-0.00639
23,CAGGTAAG,0.0626
24,GTAAGCGA,0.383
25,CCATAAAC,-0.114

# Rewritten bar-delimited: entries from further up.
row | Sequence | PBM E-score
12 | AAAGAAAG | 0.0167
25 | CGAGATAC | 0.15
23 | AGGAACAT | -0.0926
8 | TGAGCACA | 0.0892
9 | ATGGATAC | 0.0771

# (next part)

row,Sequence,PBM E-score
1,TCCGAGAA,0.13
2,GAATGACA,0.00808
3,AATAGCGT,0.1
4,CATACACG,0.0152
5,CTGCAGGA,0.068
6,CCGCAGAG,-0.244
7,AACACGAG,0.105
8,ACTGATAT,0.128
9,AGCTAACC,-0.0234
10,AAGCATGG,-0.0876
11,ACACAAAT,0.144
12,ATGATGCA,0.136
13,ATTGCATA,0.237
14,CGATAACA,0.0831
15,CAACACTG,0.0247
16,CGCTACCC,-0.181
17,AAACTGCC,0.0146
18,AGTACAAA,0.191
19,CGGCGATA,0.0501
20,CGTTCAGA,-0.229
21,ACATGTAG,0.278
22,GCCTGGAA,0.0515

# 4 entries drawn at random from the list so far, as already listed:
row,Sequence,PBM E-score
16,GGTCCCAC,-0.148
5,AGTGGGCA,0.0507
16,CGATGCGA,0.0284
18,AGTACAAA,0.191
